Measurements from PMC6992785, “In cellulo crystallization of Trypanosoma brucei IMP dehydrogenase enables the identification of genuine co-factors” (Nature Communications, 2020).
No constants are given. Whether binding was seen depends on the method and setting. Some entries that bind do so weakly or less than the wild type.

Molecular target: Trypanosoma brucei inosine-5'-monophosphate dehydrogenase (Trypanosoma brucei) (UniProt P50098)
Assay: crystal structure; serial femtosecond crystallography (XFEL, LCLS CXI) at room temperature (291 K) on crystals grown in living Sf9 cells, isolated and kept in PBS; 2.80 Å; space group P4 21 2, two monomers in the asymmetric unit; native ATP and GMP bound

B1: Trypanosoma brucei inosine-5'-monophosphate dehydrogenase (enzyme, UniProt P50098 1-512, looked up)
chain: MENTNLRTKTLRDGTTAEELFSQDGLSFNDFIILPGFIDFDSSKVNVSGQFTKNILLHLPLVSSPMDTVTESSMARAMALMGGIGVIHNNCTVEQQARMVRSVKLYRNGFIMKPKSVSPDVPVSTIRNIKSEKGISGILVTEGGKYDGKLLGIVCTKDIDFVKDASAPVSQYMTRRENMTVERYPIKLEEAMDVLNRSRHGYLPVLNDKDEVVCLCSRRDAVRARDYPNSSLDRNGHLLCAAATSTREADKGRVAALSEAGIDVLVLDSSQGNTIYQVSFIRWVKKTYPHLEVVAGNVVTQDQAKNLIDAGADSLRIGMGSGSICITQEVLACGRPQATAIYKVARYAASRGVPCVADGGLRNVGDVCKALAVGANVAMLGSMIAGTSETPGEYFFKDGMRLKGYRGMGSIDAMLQGRESGKRYLSENETLQVAQGVAGAVLDKGSVLKLLAYIHKGLQQSAQDIGEVSFDAIREKVYEGQVLFNRRTLTAQSEGAVHSLHHYERKLFASKL
notes: Inosine-5'-monophosphate dehydrogenase of Trypanosoma brucei, full length, with its native C-terminal SKL motif (PTS1); Two monomers in the asymmetric unit; the octamer arises by crystal symmetry; also called TbIMPDH; IMPDH; source: Sf9 insect cells infected with recombinant baculovirus; crystallised in cellulo, crystals isolated by cell lysis (RIPA buffer), washed and stored in PBS; not shown: …
binding: binds
